Some of the results follow. The main result of the screen is listed elsewhere. These columns were measured beside it and carry no call. The list favours compounds with an active or inconclusive main result. Potencies come from curve fits of mixed quality, noted in brackets.
Assay: IkB Signaling
Details: ABC-DLBCL IkBa-CBG/CBR dual luciferase ratio (green luciferase fused to IkBa over red control in OCI-Ly3 lymphoma cells), 4 h
Method in brief: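 Curves were fitted separately to fusion (green), unfused (red) and ratio luminescence, then classed by r2, magnitude and activity. Cells: OCI-Ly3, 4 h compound plus doxycycline at 37C; 10 uM MG-132 defined full response.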

[1] = measured here: control luc red channel unless noted

O=C(CSc1nc2ccccc2c(=O)[nH]1)c1cccs1
AC50 [1]: 10 µM [falling, partial curve]

Fc1ccccc1OCc1nc(-c2ccc(-n3cccc3)cc2)no1
AC50 [1]: 12.6 µM [rising, partial curve]

CCOC(=O)c1oc2ccc(S(=O)(=O)Nc3ccc4c(c3)n(C)c(=O)n4C)cc2c1C
AC50 [1]: 6.31 µM [rising, partial curve] [measured here: IkB-luc green channel]

O=C(CSc1nc2c([nH]c3ccccc32)c(=O)n1-c1ccccc1F)Nc1ccccc1C(F)(F)F
AC50 [1]: 39.8 µM [falling, partial curve]

Cc1ccc(C(C(=O)NC2CCCC2)N(Cc2cccs2)C(=O)CNC(=O)c2cccs2)o1 (configuration not stated)
AC50 [1]: 39.8 µM [falling, single point]

COc1ccc(NC(=O)C2CCCN(S(=O)(=O)c3ccc4c(c3)CCCN4C(C)=O)C2)cc1 (configuration not stated)
AC50 [1]: 39.8 µM [falling, partial curve]

COc1ccc(CNC(=O)C2CCN(c3nnc(-n4cccc4CNc4ccc(C)cc4)s3)CC2)c(OC)c1
AC50 [1]: 0.126 µM [falling, full curve]

COc1ccc(C(=O)Nc2cc(OC)cc(OC)c2)cc1
AC50 [1]: 3.16 µM [falling, partial curve]

COc1ccc(NC(=O)CSc2c3c(nc4ccccc24)CCC3)c(OC)c1
AC50 [1]: 15.8 µM [falling, partial curve]

COc1cccc(Nc2sc(C(=O)c3ccc(F)cc3)c(N)c2C(=O)NCc2ccc(C)cc2)c1
AC50 [1]: 1 µM [falling, full curve]

CCOC(=O)c1ccc(NC(=O)C(C)N(c2ccc(OCC)cc2)S(C)(=O)=O)cc1 (configuration not stated)
AC50 [1]: 39.8 µM [falling, single point]

Cc1c(C(=O)Nc2ccc(F)c(F)c2)oc2ccc(S(=O)(=O)N(C)C3CCCCC3)cc12
AC50 [1]: 5.01 µM [falling, partial curve]

Cc1cc(N2CCN(C)CC2)nc2ccc(NC(=O)c3ccc4c(c3)OCO4)cc12
AC50 [1]: 15.8 µM [falling, partial curve]

COc1ccc(CCNC(=O)CCCCn2c(=O)c3ccccc3n(Cc3ccc(Cl)cc3)c2=O)cc1OC
AC50 [1]: 20 µM [falling, partial curve]

Cc1ccc(-c2nnc(CSc3nnc(COc4ccccc4)n3-c3ccccc3)o2)cc1
AC50 [1]: 39.8 µM [falling, single point]

Cc1ccc(C(=O)Nc2nc(-c3nnn(-c4cccc(Cl)c4C)c3C)ns2)cc1C
AC50 [1]: 1.26 µM [falling, full curve]

COc1ccc(NC(=O)c2oc3c(c2C)-c2nn(Cc4ccccc4Cl)cc2CC3)cc1OC
AC50 [1]: 20 µM [falling, partial curve]

Cc1cc(-c2nn3c(-c4ccccc4)nnc3s2)c2ccccc2n1
AC50 [1]: 10 µM [falling, partial curve]

CC(C)C(C(=O)OCC(=O)c1ccc2c(c1)NC(=O)CO2)N1C(=O)c2ccccc2C1=O (configuration not stated)
AC50 [1]: 39.8 µM [falling, partial curve]

O=C(Cn1ccn(-c2cccc(Cl)c2)c(=O)c1=O)c1ccc(F)cc1
AC50 [1]: 0.316 µM [falling, full curve, poor fit]

O=C(NCCCN1CCN(c2ccc(F)cc2)CC1)c1sc2ncccc2c1-n1cccc1
AC50 [1]: 15.8 µM [falling, single point]

CCOc1ccc(CNC(=O)c2[nH]c3ccccc3c2Sc2ccc(C)cc2)cc1
AC50 [1]: 39.8 µM [falling, single point]

O=C(NC1CCCCC1)c1ccc(CNc2ccccc2)o1
AC50 [1]: 25.1 µM [falling, partial curve]

Cc1ccc(NC(=O)c2ccco2)cc1NC(=O)CSc1nnc(-c2cccs2)n1C
AC50 [1]: 25.1 µM [falling, partial curve]

COc1ccc(OC)c(S(=O)(=O)N2Cc3ccccc3CC2C(=O)Nc2ccc(Cl)cc2)c1 (configuration not stated)
AC50 [1]: 7.94 µM [falling, partial curve]

CCOc1ccc(-c2nn(-c3ccccc3)cc2C2NC(=O)NC(C)=C2C(=O)OC(C)C)cc1C (configuration not stated)
AC50 [1]: 12.6 µM [falling, partial curve]

CC1CCCCN1c1nc(-c2ccncc2)nc2ccccc12 (configuration not stated)
AC50 [1]: 31.6 µM [falling, partial curve]

O=C1C(c2ccc(F)cc2)N(Cc2ccccc2Cl)C(=O)CN1C1CCCCC1 (configuration not stated)
AC50 [1]: 25.1 µM [falling, partial curve]

CCn1c(Cn2nnc(-c3ccccc3)n2)nnc1SCc1ccc(Cl)c(Cl)c1
AC50 [1]: 25.1 µM [falling, partial curve]

COc1ccccc1NC(=O)CN1C(=O)CC(c2ccc(C)c(C)c2)=Nc2ccccc21
AC50 [1]: 39.8 µM [falling, single point]

CCCn1c(CN2CCN(C(=O)OCC)CC2)nc2c1c(=O)n(C)c(=O)n2C
AC50 (measured here: IkB-luc green channel): 15.8 µM [rising, partial curve] | AC50 (measured here: control luc red channel): 0.794 µM [falling, full curve]

Nc1ccccc1O
AC50 [1]: 2.51 µM [falling, full curve]

COc1ccc(N2CCN(S(=O)(=O)CCNC(=O)COc3cccc(OC)c3)CC2)cc1
AC50 [1]: 0.316 µM [rising, partial curve]

Cc1cccc(Cn2c(SCc3ccc(C(=O)N4CCC(C)CC4)cc3)nc3ccncc32)c1
AC50 [1]: 12.6 µM [falling, partial curve]

CCn1c(CN2CCCCC2)nc2cc(NC(=O)c3ccccc3[N+](=O)[O-])ccc21
AC50 [1]: 3.16 µM [falling, partial curve]

Cc1nn(-c2ccccc2)c(OC(=O)c2ccc(F)cc2)c1S(=O)(=O)c1ccccc1
AC50 [1]: 3.16 µM [falling, full curve, poor fit]

CCCn1cc(S(=O)(=O)c2ccc(C)cc2)c(=O)c2cc(OC)c(OC)cc21
AC50 [1]: 39.8 µM [falling, single point]

COc1cccc(NC(=O)C(=O)NCCc2csc(-c3ccc(C)cc3)n2)c1
AC50 [1]: 0.251 µM [falling, full curve]

CCOc1ccc(C(=O)Nc2ccc(C(=O)OCc3cc(=O)n4ccsc4n3)cc2)cc1
AC50 [1]: 6.31 µM [falling, full curve]

O=C(Nc1cccc2cccnc12)c1cccc2ccccc12
AC50 [1]: 3.16 µM [rising, partial curve]

S=C(Nc1ccccc1)Nc1nccs1
AC50 [1]: 39.8 µM [rising, single point] [measured here: IkB-luc green channel]

COc1cccc(N2CCN(C(=O)c3cc4c(=O)n(Cc5cccs5)ccc4nc3C)CC2)c1
AC50 [1]: 31.6 µM [falling, single point]

CN1CSC2=C(C#N)C(c3cccc(OCc4ccccc4)c3)CC(=O)N2C1 (configuration not stated)
AC50 [1]: 39.8 µM [rising, single point] [measured here: IkB-luc green channel]

Cc1ccc(CNC(=O)Cn2ncc3c([nH]c4ccc(C)cc43)c2=O)cc1
AC50 [1]: 10 µM [rising, partial curve]

COc1cc(C(=O)Nc2nc3c(s2)Cc2c(Br)ccc(OC)c2-3)cc(OC)c1OC
AC50 [1]: 3.98 µM [falling, full curve]

O=C(Nc1nnc(N2CCCCCC2)s1)Nc1ccccc1C(F)(F)F
AC50 [1]: 39.8 µM [falling, single point]

COc1ccc(Cl)cc1NC(=O)CSc1c2c(nc3ccccc13)CCC2
AC50 [1]: 3.16 µM [falling, single point]

O=C(c1oc2ccccc2c1CSCc1ccccc1)N1CCN(c2ncccn2)CC1
AC50 [1]: 10 µM [falling, partial curve]

Cc1ccc(NC(=O)NCCOCCn2c(=O)oc3ccccc32)cc1F
AC50 [1]: 10 µM [falling, full curve]

Clc1ccc(C(c2nnnn2C2CCCCC2)N(Cc2cccnc2)Cc2ccco2)cc1 (configuration not stated)
AC50 [1]: 20 µM [falling, partial curve]

Cc1cccc(NC(=O)c2c(NC(=O)c3ccccc3)sc3c2CCCC3)c1
AC50 [1]: 25.1 µM [rising, partial curve] [measured here: IkB-luc green channel]

N#CC1=C2SCN(c3ccc(F)cc3)CN2C(=O)CC1c1cccc(F)c1 (configuration not stated)
AC50 [1]: 10 µM [falling, partial curve]

CN1CCSc2ccc(C(=O)NCc3ccccc3F)cc21
AC50 [1]: 25.1 µM [falling, single point]

COC(=O)c1ccc(C(=O)OC)c(NC(=O)N2CC3CCCN3c3ccccc32)c1 (configuration not stated)
AC50 [1]: 39.8 µM [rising, partial curve]

CCOc1ccccc1NC(=O)CSc1nc2c([nH]c3ccccc32)c(=O)n1-c1ccccc1
AC50 [1]: 0.0251 µM [falling, full curve, poor fit]

Cc1ccc(Cl)cc1N1CCN(C(=O)c2cc3c(=O)n(C)c4ccccc4c3s2)CC1
AC50 [1]: 12.6 µM [falling, partial curve]

CCOC(=O)c1cccc(NC(=O)c2cc3sccc3n2C)c1
AC50 [1]: 20 µM [falling, partial curve]

CCn1c(=O)sc2cc(NC(=O)c3cccc(OC)c3)ccc21
AC50 [1]: 15.8 µM [falling, partial curve]

COc1ccc(C2CC(=O)c3c(C)nc(N4CCN(C=O)CC4)nc3C2)c(OC)c1 (configuration not stated)
AC50 [1]: 0.2 µM [rising, partial curve]

Cc1sc2nc(SCC(=O)c3cc(C)n(CC4CCCO4)c3C)n(C(C)C)c(=O)c2c1C (configuration not stated)
AC50 [1]: 25.1 µM [falling, partial curve]

N#CCSc1nnc(COc2cccc3ccccc23)n1-c1cccc(Cl)c1
AC50 [1]: 31.6 µM [falling, single point]
